Source: paper doi:10.1101/2020.12.02.407882
Results are given in words; binding and its absence hold for the method and conditions named. Binding seen in cells or lysates may run through a third protein. Some entries that bind do so weakly or less than the wild type.

Amino acid sequences for entries named in this document (tags omitted). Residues count along the entry.
UniProt P07766, residues 23-207: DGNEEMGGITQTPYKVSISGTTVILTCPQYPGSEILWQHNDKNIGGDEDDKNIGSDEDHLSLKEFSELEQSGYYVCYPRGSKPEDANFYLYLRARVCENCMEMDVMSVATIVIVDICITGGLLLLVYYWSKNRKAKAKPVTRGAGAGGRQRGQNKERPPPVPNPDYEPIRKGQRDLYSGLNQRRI

Target: CD3ε, endogenous in J76 Jurkat cells (human (endogenous in Jurkat J76)) (UniProt P07766)
Test: co-IP

binding: binds
Substance: CD3ζ (ζζ dimer), endogenous in J76 Jurkat cells (from UniProt P20963-1 22-164)
